Experimental data: patent US20140323721A1, “HETEROCYCLIC COMPOUNDS AND USES THEREOF” (INTELLIKINE, LLC, priority 2011, published 2014)
For at least one compound, name, drawing or mass did not settle the structure.

System: PI3K/Akt/mTor signaling
Assay: Kinase signaling in blood (phosflow)
Format: cell-based
Conditions: splenocytes or peripheral blood mononuclear cells stimulated with anti-CD3

`CO[C@H]1C[C@@H]2CC[C@@H](C)[C@@](O)(O2)C(=O)C(=O)N2CCCC[C@H]2C(=O)O[C@H]([C@H](C)C[C@@H]2CC[C@@H](O)[C@H](OC)C2)CC(=O)[C@H](C)/C=C(\C)[C@@H](O)[C@@H](OC)C(=O)[C@H](C)C[C@H](C)/C=C/C=C/C=C/1C` [rapamycin] was tested, and the “anti-CD3 mediated phosphorylation of Akt-S473” value was “enhances” and the “anti-CD3 mediated phosphorylation of S6” value was “inhibits”.
